From patent publication EP0973746B1, “SUBSTITUTED 3-CYANO QUINOLINES” (Wyeth Holdings Corporation, priority 1997, dated 1998)
At least one structure is not confirmed: it was looked up by name or label, or the drawing left a doubt.

Target: recombinant human MEK 1 (MAPKK) and recombinant human ERK2 (MAPK)
Experiment: Mitogen Activated Protein Kinase (MAPK) assay, two component coupled MEK 1 / ERK2;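 also: MEK 1-activated ERK2 phosphorylates MBP or Myc peptide with 33P-ATP, filter capture and scintillation counting, inhibitor preincubated with ERK2 30 min at 0 °C, inhibition relative to uninhibited control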
Type: biochemical
Conditions: separate entries for the same compound = evaluated more than one time

## COc1cccc2c(Nc3ccc(C)c(O)c3)c(C#N)cnc12 [Example 276, 4-(3-Hydroxy-4-methyl-phenylamino)-8-methoxy-quinoline-3-carbonitrile]
  IC50: > 100 µM
